# Single values are uncertain, as repeats are few or missing.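 All cells are established human bladder cancer lines, one derived from a patient-derived xenograft. A luminescent ATP assay measured viability as percent inhibition relative to vehicle across seven dilutions. The paper rates scores above 59 very active, 30–59 active, 21–29 semi-active, 9–20 low active, below 9 inactive.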
# Experiments:
# Assay in all cases: drug sensitivity score DSS3 (score 0-100); higher = more sensitive; extreme values may be limits of the assay
# Settings in all cases: culture: 3D, ultra-low attachment; treatment time: 5 days
# UM-UC-6 = tested on: UM-UC-6
# UM-UC-3 = tested on: UM-UC-3
# UM-UC-12 = tested on: UM-UC-12
# T-24 = tested on: T-24
# UM-UC-1 = tested on: UM-UC-1
# SCaBER = tested on: SCaBER
# UM-UC-9 = tested on: UM-UC-9
# SW780 = tested on: SW780
# UM-UC-18 = tested on: UM-UC-18
# UM-UC-14 = tested on: UM-UC-14
# UM-UC-17 = tested on: UM-UC-17
# BC8149 = tested on: BC8149
# UM-UC-15 = tested on: UM-UC-15
# J82 = tested on: J82
# UM-UC-5 = tested on: UM-UC-5
# TCCSUP = tested on: TCCSUP
# 5637 = tested on: 5637
Compound,drug sensitivity score DSS3 (UM-UC-6),drug sensitivity score DSS3 (UM-UC-3),drug sensitivity score DSS3 (UM-UC-12),drug sensitivity score DSS3 (T-24),drug sensitivity score DSS3 (UM-UC-1),drug sensitivity score DSS3 (SCaBER),drug sensitivity score DSS3 (UM-UC-9),drug sensitivity score DSS3 (SW780),drug sensitivity score DSS3 (UM-UC-18),drug sensitivity score DSS3 (UM-UC-14),drug sensitivity score DSS3 (UM-UC-17),drug sensitivity score DSS3 (BC8149),drug sensitivity score DSS3 (UM-UC-15),drug sensitivity score DSS3 (J82),drug sensitivity score DSS3 (UM-UC-5),drug sensitivity score DSS3 (TCCSUP),drug sensitivity score DSS3 5637
CC(=O)O[C@H]1C(=O)[C@@]2(C)[C@H]([C@H](OC(=O)c3ccccc3)[C@]3(O)C[C@H](OC(=O)[C@H](O)[C@@H](NC(=O)c4ccccc4)c4ccccc4)C(C)=C1C3(C)C)[C@]1(OC(C)=O)CO[C@@H]1C[C@@H]2O (max dose 10000 nM),50.7,30.5,29.8,0,55.4,36.7,11.8,47.9,56.6,55.1,68.8,47.3,0,8.42,5.45e-05,68.9,69.6
CC(C)(C)OC(=O)Nc1ccc(-c2cc(C(=O)NCCCCCCC(=O)NO)no2)cc1 (max dose 10000 nM),1.67,7.7,6.5,13,2.44,2.82,1.39,0.833,7.84,3.35,0,11.3,27.4,1.27,0,4.84,5.12
CC(C)(C)c1cnc(CSc2cnc(NC(=O)C3CCNCC3)s2)o1 (max dose 10000 nM),12.5,9.88,4.58,2.55,22.2,25.9,10.9,9.49,25.3,3.03,19,18.5,12.1,2.24,16.7,38.9,22.9
CC(C)C[C@H](NC(=O)[C@@H](NC(=O)c1cccc(-c2ccccc2)n1)[C@@H](C)O)B(O)O (max dose 10000 nM),41.1,20.2,77.6,10.7,49.8,63.6,55.1,60.5,53.6,60.3,55.1,71.3,51.2,56.8,48.6,51.6,64.4
CC1(C)CC(=O)c2c(C(F)(F)F)nn(-c3ccc(C(N)=O)c(N[C@H]4CC[C@H](O)CC4)c3)c2C1 (max dose 10000 nM),23.1,55.4,44.1,27.6,28.5,42.9,22.3,3.35,38.1,34.6,26.9,58.7,27.4,13.5,27.2,48.5,53.8
CCNC(=O)[C@H]1O[C@@H](n2cnc3c(N)nc(NCCc4ccc(CCC(=O)O)cc4)nc32)[C@H](O)[C@@H]1O (max dose 10000 nM),0,0,0,0,0,0,0,0,0,0,0,0,0,0,0,0,0
CCOc1ccn(-c2ccc(F)cc2)c(=O)c1C(=O)Nc1ccc(Oc2ccnc(N)c2Cl)c(F)c1 (max dose 10000 nM),0.602,8.35,0,0,0,0,0,0,0,0,2.46,7.96,0,0.014,0.502,11.3,8.31
CCn1cc(-c2ccnc3[nH]c(-c4cccc(CN(C)C)c4)cc23)c(-c2ccc(NC(=O)N(C)C)cc2)n1 (max dose 10000 nM),34.9,14.6,0.468,0,37.7,26.9,0,0,18.1,29.1,18.4,16.3,15.2,0,21.2,57.2,53.1
CN(C)C(=O)[C@H](O)[C@H](Cc1ccccc1)NC(=O)c1cc2cc(Cl)ccc2[nH]1 (max dose 10000 nM),0.183,0,0,0,0,0,0,0,0,0,0,0,6.93,0,0,0,0
CN(C)CCCn1cc(C2=C(c3c[nH]c4ccccc34)C(=O)NC2=O)c2ccccc21 (max dose 10000 nM),0,0,0,0,0,0,0,0,0,0,0,0,4.31,0,1.06,0,0
CN(C)Cc1c(C(=O)NCCOc2ccc(C(=O)NO)cc2)oc2ccccc12 (max dose 10000 nM),8.14,20.6,18,12.4,2.92,3.35,2.83,0,7.48,7.01,7.53,20.5,41.1,6.5,3.74,24.8,10.8
CN1CCN(c2ccc(OC(F)(F)F)c(Nc3ncc4c(n3)-c3c(c(C(N)=O)nn3CCO)CC4)c2)CC1 (max dose 10000 nM),51.6,29.8,9.26,0.412,23.5,9.39,6.5,13.3,17.5,27.2,41.4,31,0,1.92,0,45.6,45.3
CNC(=O)c1ccc(-c2cnc3ncc(Cc4ccc5ncccc5c4)n3n2)cc1F (max dose 10000 nM),11.9,5.06,0,0,5.57,2.1,2.57,8.42,3.71,4.49,10.8,0,8.7,0,0,10.3,12.6
CNCc1ccc(C)c(NC(=O)c2ccc(Nc3nc(-c4ccccc4)c4ccccc4n3)cc2)c1 (max dose 10000 nM),0,0.751,0,0,0,0,0,1.76,0,0,0,0,0.253,0,0,0,0
COCCOc1ccc2c(c1)ncn2-c1ccc2cccc(N3CCC(N)CC3)c2n1 (max dose 10000 nM),0.637,0.387,0,1.16,0.143,0.187,0,0,0,0,0,0.177,6.7,0,0,0.126,0
CO[C@@H](C)Cn1c(=O)n(C)c2cnc3ccc(-c4cncc(C(C)(C)O)c4)cc3c21 (max dose 10000 nM),27.8,26.8,46.3,10.3,25.9,27.4,6.88,3.47,33.5,34.3,20.2,60.5,10.3,14.6,24.5,48.5,38.1
COc1cc2nc(N3CCCN(C)CC3)nc(NC3CCN(Cc4ccccc4)CC3)c2cc1OC (max dose 10000 nM),0,0,0.137,0,0,0.121,0,0.24,0.118,0,0,1.37,0.124,0,0,0.122,0.122
COc1cc2ncnc(Nc3ccc(F)c(Cl)c3)c2cc1NC(=O)/C=C/CN1CCCCC1 (max dose 10000 nM),29.3,14.4,44.9,0,17.8,28.7,0,0.947,41.5,13.8,2.39,10.6,6.99,0,0,41.2,33.9
COc1ncc(-c2ccc3nccc(-c4ccnnc4)c3c2)cc1NS(=O)(=O)c1ccc(F)cc1F (max dose 10000 nM),36.2,47.5,49.7,36.7,45.8,63.1,5.98,13.9,44.6,47,14.2,61,0,37.4,56.7,59.4,47.3
CS(=O)(=O)N1CCc2c(-c3cnc(N)nc3)nc(N3CCOCC3)nc21 (max dose 10000 nM),22.2,16.8,16.4,8.87,23,16.5,0,10,9.65,30.1,19.4,18.9,0,3.33,18.6,26.8,20
C[C@@H](C(=O)Nc1ccc(Cl)cc1)C1CCC(c2ccnc3ccc(F)cc23)CC1 (stereo not given in full) (max dose 10000 nM),0,0,0,0,0,0,0,0,0,0,0.000602,0,0,0,0.0365,0,0
Cc1nc2ccc(-n3ncc(C(=O)c4cc5ccccc5[nH]4)c3N)cc2[nH]1 (max dose 10000 nM),4.64,5.07,19.1,6.18,2.43,23.5,2.95,0,20.7,13.9,16.3,38,14.1,7.52,4.67,44,21.3
Cc1nn(C)c(COc2ccc(N3CCN(S(=O)(=O)N(C)C)CC3)cc2)c1-c1cccc2c(CCCOc3cccc4ccccc34)c(C(=O)O)n(CCN3CCOCC3)c12 (max dose 10000 nM),0,0,0,0,0,0,0,0,0,0,0,0,0,0,0,0,0
Nc1nc(Nc2ccc(S(N)(=O)=O)cc2)nn1C(=O)c1c(F)cccc1F (max dose 10000 nM),9.73,6.95,0,0,12.9,9.68,5.39,11.4,15.1,10,19.3,5.54,0,0,0,36.7,19.8
O=C1NCCCc2c1oc1ccc(O)cc21 (max dose 10000 nM),0,4.77,1.08,0,0,0,0,0,0.744,0,0,0,10.8,0,0,0.0227,0

# 2 successive entries from above, for reference:
Compound,drug sensitivity score DSS3 (UM-UC-6),drug sensitivity score DSS3 (UM-UC-3),drug sensitivity score DSS3 (UM-UC-12),drug sensitivity score DSS3 (T-24),drug sensitivity score DSS3 (UM-UC-1),drug sensitivity score DSS3 (SCaBER),drug sensitivity score DSS3 (UM-UC-9),drug sensitivity score DSS3 (SW780),drug sensitivity score DSS3 (UM-UC-18),drug sensitivity score DSS3 (UM-UC-14),drug sensitivity score DSS3 (UM-UC-17),drug sensitivity score DSS3 (BC8149),drug sensitivity score DSS3 (UM-UC-15),drug sensitivity score DSS3 (J82),drug sensitivity score DSS3 (UM-UC-5),drug sensitivity score DSS3 (TCCSUP),drug sensitivity score DSS3 5637
Cc1nn(C)c(COc2ccc(N3CCN(S(=O)(=O)N(C)C)CC3)cc2)c1-c1cccc2c(CCCOc3cccc4ccccc34)c(C(=O)O)n(CCN3CCOCC3)c12 (max dose 10000 nM),0,0,0,0,0,0,0,0,0,0,0,0,0,0,0,0,0
Nc1nc(Nc2ccc(S(N)(=O)=O)cc2)nn1C(=O)c1c(F)cccc1F (max dose 10000 nM),9.73,6.95,0,0,12.9,9.68,5.39,11.4,15.1,10,19.3,5.54,0,0,0,36.7,19.8

# From the supplement of paper PMC7646827
